One molecule from publication PMC10617613 can be followed below.

Amino acid sequences for entries named in this document (tags omitted).
UniProt P08670: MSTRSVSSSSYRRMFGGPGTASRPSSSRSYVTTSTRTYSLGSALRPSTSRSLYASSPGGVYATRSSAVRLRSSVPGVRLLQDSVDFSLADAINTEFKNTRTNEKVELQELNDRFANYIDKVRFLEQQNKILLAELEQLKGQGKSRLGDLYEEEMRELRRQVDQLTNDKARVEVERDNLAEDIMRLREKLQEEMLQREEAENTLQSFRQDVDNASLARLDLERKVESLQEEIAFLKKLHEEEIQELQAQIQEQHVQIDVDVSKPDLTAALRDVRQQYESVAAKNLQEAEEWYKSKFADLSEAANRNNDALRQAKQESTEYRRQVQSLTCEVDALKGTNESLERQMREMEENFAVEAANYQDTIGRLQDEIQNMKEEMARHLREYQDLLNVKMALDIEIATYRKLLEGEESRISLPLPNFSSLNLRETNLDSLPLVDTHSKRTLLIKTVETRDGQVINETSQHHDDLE

The experiment has as its target Vimentin (human (endogenous in HeLaM and human dermal fibroblasts)) (UniProt P08670). The experiment can be described thus: proximity ligation; Duolink in situ PLA on fixed, permeabilised human dermal fibroblasts with anti-GORAB and anti-vimentin primary antibodies; controls were GORAB-deficient GO fibroblasts and omission of antibodies.

These are yes or no findings as the source states them, for the method shown. Binding seen in cells or lysates may run through a third protein. Some results given as binding are weak or reduced against the parent protein; the word gives no strength.

B1: GORAB (protein, UniProt Q5T7V8 1-369)
chain: MAQGWAGFSEEELRRLKQTKDPFEPQRRLPAKKSRQQLQREKALVEQSQKLGLQDGSTSLLPEQLLSAPKQRVNVQKPPFSSPTLPSHFTLTSPVGDGQPQGIESQPKELGLENSHDGHNNVEILPPKPDCKLEKKKVELQEKSRWEVLQQEQRLMEEKNKRKKALLAKAIAERSKRTQAETMKLKRIQKELQALDDMVSADIGILRNRIDQASLDYSYARKRFDRAEAEYIAAKLDIQRKTEIKEQLTEHLCTIIQQNELRKAKKLEELMQQLDVEADEETLELEVEVERLLHEQEVESRRPVVRLERPFQPAEESVTLEFAKENRKCQEQAVSPKVDDQCGNSSSIPFLSPNCPNQEGNDISAALAT
Turning to B1, the binding result is “binds”.
